The list shows a part of the results.
Experiments:
Assay in all cases: log2 fold change, soluble protein after heating vs DMSO (PISA); higher = thermal stabilisation; K562 lysate, 10 uM; active = over 0.2 and 3.5 SD of the protein, either way, in both replicates (recomputed)
vemurafenib = compound: CCCS(=O)(=O)Nc1ccc(F)c(C(=O)c2c[nH]c3ncc(-c4ccc(Cl)cc4)cc23)c1F [vemurafenib]
Procedure, shortened: (§1)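 Soluble protein was defined as the supernatant remaining after 21,000xg for 90 min, following pooling of heated aliquots and adjustment to 0.5% NP-40 at 4°C. Before that, crude K562 extract at 1 mg/mL protein in PBS pH 7.4 with 1 mM MgCl2 was treated with 10 μM compound for 30 min and heated for 3 min across 48°C-58°C. Quantification used TMTpro 16plex LC-MS/MS with channel sums equalised, and values are log-two fold changes in thermal stability relative to solvent controls from duplicates.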

By UniProt entry, the sequences of proteins in these tests, tags left out. Where a name states a change or a piece, a line headed by the entry shows the natural chain unless it says otherwise.
UniProt Q9NP58: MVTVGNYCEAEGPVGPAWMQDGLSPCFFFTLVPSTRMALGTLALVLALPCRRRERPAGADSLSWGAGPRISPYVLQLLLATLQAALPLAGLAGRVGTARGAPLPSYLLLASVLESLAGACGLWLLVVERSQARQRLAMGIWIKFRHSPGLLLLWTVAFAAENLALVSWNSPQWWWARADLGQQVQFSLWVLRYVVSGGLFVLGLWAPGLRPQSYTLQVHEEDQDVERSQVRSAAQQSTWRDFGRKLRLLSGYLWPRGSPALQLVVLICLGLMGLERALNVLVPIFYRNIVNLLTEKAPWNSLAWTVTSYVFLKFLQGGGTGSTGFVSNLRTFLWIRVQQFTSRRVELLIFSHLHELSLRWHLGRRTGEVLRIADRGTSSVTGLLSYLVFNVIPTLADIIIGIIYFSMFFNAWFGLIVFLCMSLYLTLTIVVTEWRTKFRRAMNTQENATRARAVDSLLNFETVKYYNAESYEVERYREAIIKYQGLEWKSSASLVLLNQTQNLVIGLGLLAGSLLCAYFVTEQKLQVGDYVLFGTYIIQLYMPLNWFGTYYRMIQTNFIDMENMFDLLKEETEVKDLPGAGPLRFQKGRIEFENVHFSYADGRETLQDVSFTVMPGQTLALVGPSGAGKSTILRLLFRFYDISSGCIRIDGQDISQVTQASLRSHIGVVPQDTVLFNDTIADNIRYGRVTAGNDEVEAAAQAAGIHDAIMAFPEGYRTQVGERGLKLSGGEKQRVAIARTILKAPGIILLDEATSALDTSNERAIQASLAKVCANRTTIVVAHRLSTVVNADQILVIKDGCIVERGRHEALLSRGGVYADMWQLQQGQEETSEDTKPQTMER
UniProt Q8TB40: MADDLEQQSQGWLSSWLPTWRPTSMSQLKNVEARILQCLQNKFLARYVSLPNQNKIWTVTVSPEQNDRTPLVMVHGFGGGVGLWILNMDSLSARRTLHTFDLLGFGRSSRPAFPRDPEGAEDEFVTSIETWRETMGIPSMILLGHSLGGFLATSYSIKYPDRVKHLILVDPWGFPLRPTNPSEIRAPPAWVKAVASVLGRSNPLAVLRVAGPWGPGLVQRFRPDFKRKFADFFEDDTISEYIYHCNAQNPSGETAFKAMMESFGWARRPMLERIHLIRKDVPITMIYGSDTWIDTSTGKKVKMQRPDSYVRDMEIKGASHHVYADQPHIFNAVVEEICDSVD
UniProt Q7L211: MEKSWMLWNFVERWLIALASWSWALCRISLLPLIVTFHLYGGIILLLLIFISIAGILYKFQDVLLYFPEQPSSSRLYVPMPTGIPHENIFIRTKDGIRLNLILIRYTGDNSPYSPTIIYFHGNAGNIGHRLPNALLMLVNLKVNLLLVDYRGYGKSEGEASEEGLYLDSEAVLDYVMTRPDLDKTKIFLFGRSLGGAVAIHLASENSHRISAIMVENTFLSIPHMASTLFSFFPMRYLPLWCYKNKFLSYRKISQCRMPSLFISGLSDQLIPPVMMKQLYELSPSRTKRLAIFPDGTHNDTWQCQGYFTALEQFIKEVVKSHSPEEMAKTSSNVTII
UniProt P12821, whole entry, looked up: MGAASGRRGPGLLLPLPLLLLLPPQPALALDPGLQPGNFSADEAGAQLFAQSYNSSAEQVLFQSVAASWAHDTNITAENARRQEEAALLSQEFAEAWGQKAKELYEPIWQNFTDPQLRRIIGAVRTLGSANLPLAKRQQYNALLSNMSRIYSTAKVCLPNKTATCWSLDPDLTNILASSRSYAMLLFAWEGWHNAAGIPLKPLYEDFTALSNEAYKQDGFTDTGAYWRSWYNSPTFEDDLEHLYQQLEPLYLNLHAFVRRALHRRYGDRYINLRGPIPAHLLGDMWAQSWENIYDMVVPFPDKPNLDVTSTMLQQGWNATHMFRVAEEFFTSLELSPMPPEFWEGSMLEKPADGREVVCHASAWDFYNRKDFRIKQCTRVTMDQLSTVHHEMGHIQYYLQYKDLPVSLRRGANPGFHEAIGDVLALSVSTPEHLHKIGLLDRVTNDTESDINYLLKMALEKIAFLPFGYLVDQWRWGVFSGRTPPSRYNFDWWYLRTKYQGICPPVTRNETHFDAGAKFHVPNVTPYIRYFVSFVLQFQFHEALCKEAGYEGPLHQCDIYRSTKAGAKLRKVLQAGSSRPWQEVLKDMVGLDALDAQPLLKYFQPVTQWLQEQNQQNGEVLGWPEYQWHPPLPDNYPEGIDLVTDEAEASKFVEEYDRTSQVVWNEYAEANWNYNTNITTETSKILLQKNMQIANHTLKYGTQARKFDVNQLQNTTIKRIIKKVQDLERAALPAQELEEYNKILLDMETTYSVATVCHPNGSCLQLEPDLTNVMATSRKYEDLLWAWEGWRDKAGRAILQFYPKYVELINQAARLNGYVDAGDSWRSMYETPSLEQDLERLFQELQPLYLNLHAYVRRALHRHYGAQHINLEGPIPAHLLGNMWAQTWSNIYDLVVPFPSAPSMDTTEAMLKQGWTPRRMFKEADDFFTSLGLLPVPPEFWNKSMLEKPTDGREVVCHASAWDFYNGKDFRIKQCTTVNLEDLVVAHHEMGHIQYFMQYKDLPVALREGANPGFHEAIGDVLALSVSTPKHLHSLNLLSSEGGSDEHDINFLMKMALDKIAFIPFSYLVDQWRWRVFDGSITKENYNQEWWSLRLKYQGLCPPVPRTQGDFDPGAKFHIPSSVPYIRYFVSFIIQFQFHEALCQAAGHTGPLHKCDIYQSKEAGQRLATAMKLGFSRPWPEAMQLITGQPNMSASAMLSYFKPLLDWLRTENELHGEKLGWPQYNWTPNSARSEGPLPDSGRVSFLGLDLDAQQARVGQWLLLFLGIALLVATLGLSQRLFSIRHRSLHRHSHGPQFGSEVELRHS
UniProt Q4L235: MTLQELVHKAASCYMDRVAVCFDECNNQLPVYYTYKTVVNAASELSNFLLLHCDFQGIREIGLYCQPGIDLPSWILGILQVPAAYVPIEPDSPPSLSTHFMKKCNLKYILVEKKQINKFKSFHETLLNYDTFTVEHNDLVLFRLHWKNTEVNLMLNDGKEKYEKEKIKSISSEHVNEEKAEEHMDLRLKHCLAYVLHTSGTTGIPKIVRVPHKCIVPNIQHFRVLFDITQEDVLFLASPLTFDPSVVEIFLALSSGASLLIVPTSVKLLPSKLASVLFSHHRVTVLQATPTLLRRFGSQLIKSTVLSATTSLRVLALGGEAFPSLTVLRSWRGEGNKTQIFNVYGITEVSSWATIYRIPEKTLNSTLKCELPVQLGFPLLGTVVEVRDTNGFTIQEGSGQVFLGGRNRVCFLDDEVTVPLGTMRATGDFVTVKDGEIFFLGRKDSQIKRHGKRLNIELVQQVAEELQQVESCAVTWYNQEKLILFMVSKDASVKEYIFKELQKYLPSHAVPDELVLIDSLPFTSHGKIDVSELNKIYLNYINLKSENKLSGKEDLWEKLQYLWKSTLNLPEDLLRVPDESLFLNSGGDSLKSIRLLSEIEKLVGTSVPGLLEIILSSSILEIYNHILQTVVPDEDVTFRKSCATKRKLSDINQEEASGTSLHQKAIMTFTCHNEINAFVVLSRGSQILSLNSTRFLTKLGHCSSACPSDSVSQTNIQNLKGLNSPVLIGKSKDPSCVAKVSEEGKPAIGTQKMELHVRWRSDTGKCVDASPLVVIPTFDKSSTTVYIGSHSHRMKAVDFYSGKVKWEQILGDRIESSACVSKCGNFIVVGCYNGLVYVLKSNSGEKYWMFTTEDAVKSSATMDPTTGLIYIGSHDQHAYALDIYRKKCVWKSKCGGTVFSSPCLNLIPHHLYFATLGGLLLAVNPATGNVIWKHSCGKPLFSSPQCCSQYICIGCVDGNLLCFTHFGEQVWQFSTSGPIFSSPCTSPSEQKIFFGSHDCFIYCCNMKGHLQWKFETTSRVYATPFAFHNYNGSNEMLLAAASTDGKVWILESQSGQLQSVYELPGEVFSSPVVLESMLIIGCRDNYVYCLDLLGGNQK
UniProt Q9P1F3: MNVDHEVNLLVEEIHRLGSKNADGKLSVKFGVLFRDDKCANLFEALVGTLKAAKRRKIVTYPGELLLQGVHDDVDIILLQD
UniProt Q6UXT9: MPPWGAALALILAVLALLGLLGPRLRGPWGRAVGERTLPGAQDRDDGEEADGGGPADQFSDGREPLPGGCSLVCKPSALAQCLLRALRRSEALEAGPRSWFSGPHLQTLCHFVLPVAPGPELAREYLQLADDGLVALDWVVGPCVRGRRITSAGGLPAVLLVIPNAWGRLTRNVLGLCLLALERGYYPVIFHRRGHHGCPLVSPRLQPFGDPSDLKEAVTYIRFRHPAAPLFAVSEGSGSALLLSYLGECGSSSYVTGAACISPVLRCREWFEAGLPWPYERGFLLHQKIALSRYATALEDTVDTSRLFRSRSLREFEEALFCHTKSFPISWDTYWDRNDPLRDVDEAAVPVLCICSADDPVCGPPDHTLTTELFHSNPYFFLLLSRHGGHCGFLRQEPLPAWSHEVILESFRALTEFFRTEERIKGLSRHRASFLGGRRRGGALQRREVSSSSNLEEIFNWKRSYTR
UniProt A8K2U0: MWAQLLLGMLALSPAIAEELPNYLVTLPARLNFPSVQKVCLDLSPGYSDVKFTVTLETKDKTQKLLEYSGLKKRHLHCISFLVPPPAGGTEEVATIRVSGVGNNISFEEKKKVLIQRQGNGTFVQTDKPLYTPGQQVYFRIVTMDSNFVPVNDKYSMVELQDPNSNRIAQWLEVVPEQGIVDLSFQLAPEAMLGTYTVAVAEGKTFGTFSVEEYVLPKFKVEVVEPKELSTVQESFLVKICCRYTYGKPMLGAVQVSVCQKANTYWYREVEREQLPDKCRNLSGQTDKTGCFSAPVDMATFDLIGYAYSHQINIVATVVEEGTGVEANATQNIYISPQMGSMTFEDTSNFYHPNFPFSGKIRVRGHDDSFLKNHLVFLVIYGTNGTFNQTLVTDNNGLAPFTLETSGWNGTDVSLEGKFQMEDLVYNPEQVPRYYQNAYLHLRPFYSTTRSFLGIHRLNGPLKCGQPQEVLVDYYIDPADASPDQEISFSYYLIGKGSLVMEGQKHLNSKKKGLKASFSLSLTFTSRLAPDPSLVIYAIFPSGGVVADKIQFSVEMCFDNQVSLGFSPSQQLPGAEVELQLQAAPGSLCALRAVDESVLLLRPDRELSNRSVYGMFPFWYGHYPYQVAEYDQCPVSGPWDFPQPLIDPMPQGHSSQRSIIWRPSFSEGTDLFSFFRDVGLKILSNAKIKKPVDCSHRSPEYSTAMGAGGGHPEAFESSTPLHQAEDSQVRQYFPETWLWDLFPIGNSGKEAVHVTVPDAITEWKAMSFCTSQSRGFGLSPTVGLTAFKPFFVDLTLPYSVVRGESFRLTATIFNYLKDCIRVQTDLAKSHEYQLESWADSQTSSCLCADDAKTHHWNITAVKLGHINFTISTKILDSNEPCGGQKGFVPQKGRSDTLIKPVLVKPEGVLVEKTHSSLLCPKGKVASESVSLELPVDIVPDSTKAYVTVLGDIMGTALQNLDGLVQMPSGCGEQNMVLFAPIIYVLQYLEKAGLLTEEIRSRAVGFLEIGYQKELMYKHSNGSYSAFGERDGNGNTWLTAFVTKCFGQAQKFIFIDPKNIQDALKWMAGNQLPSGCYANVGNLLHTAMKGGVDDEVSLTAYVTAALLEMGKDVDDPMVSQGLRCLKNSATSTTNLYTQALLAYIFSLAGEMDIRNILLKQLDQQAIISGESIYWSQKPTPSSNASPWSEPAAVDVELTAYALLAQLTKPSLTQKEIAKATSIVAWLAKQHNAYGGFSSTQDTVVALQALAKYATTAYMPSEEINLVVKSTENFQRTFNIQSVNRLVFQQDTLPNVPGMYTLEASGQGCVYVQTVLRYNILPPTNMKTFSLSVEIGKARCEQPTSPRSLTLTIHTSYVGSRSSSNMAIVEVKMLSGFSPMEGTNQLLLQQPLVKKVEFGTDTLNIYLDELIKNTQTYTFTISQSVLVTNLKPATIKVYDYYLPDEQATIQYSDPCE
UniProt Q9UNQ0: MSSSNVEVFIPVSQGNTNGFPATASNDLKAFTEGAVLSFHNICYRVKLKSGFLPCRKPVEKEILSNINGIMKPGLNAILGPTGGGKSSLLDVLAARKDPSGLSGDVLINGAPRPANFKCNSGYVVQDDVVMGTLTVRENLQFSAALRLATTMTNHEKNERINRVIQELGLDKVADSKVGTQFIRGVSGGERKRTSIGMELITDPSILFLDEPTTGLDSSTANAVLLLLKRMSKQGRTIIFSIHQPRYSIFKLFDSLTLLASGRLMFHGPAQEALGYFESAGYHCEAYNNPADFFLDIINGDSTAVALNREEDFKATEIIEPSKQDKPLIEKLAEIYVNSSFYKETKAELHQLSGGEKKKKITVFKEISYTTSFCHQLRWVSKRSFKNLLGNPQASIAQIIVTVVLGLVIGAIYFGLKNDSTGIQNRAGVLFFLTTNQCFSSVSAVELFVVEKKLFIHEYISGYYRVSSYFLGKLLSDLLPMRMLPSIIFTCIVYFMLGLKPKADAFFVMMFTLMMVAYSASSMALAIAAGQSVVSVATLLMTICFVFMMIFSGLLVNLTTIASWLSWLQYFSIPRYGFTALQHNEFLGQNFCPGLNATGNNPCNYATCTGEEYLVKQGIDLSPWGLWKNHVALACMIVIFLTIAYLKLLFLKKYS

[1] = compound: CCCS(=O)(=O)Nc1ccc(F)c(C(=O)c2c[nH]c3ncc(Cl)cc23)c1F
Procedure, shortened: as §1

barasertib = compound: CCN(CCCOc1ccc2c(Nc3cc(CC(=O)Nc4cccc(F)c4)[nH]n3)ncnc2c1)CCOP(=O)(O)O [barasertib]
Procedure, shortened: as §1

[2] = compound: CC[C@@H]1C(=O)N(C)c2cnc(Nc3ccc(C(=O)NC4CCN(C)CC4)cc3OC)nc2N1C1CCCC1
Procedure, shortened: as §1

volasertib = compound: CC[C@@H]1C(=O)N(C)c2cnc(Nc3ccc(C(=O)N[C@H]4CC[C@H](N5CCN(CC6CC6)CC5)CC4)cc3OC)nc2N1C(C)C [volasertib]
Procedure, shortened: as §1

[3] = compound: CCn1c(C(=O)N(C2CC2)C2CC2)cc2c3c(ncn3C)c(Nc3cc(C)n(C)n3)nc21
Procedure, shortened: as §1

[4] = compound: CCn1cc(-c2ccnc3[nH]c(-c4cccc(CN(C)C)c4)cc23)c(-c2ccc(NC(=O)N(C)C)cc2)n1
Procedure, shortened: as §1

[5] = compound: CN1CCC(CNc2ccc3ncc(-c4cccc(OC(F)(F)F)c4)n3n2)CC1
Procedure, shortened: as §1

saracatinib = compound: CN1CCN(CCOc2cc(OC3CCOCC3)c3c(Nc4c(Cl)ccc5c4OCO5)ncnc3c2)CC1 [saracatinib]
Procedure, shortened: as §1

sotrastaurin = compound: CN1CCN(c2nc(C3=C(c4c[nH]c5ccccc45)C(=O)NC3=O)c3ccccc3n2)CC1 [sotrastaurin]
Procedure, shortened: as §1

alvocidib = compound: CN1CC[C@H](c2c(O)cc(O)c3c(=O)cc(-c4ccccc4Cl)oc23)[C@H](O)C1 [alvocidib]
Procedure, shortened: as §1

Tubastatin A = compound: CN1CCc2c(c3ccccc3n2Cc2ccc(C(=O)NO)cc2)C1 [Tubastatin A]
Procedure, shortened: as §1

[6] = compound: CNC(=O)C1=CC=CC=C1NC2=NC(=NC=C2Cl)NC3=C(C=C(C=C3)N4CCOCC4)OC
Procedure, shortened: as §1

defactinib = compound: CNC(=O)c1ccc(Nc2ncc(C(F)(F)F)c(NCc3nccnc3N(C)S(C)(=O)=O)n2)cc1 [defactinib]
Procedure, shortened: as §1

[7] = compound: CNc1nc(-c2ccc3c(N)n[nH]c3c2)cc(N2C[C@@H](C(=O)NC3CCCCC3)CC[C@H]2C)n1
Procedure, shortened: as §1

encorafenib = compound: COC(=O)N[C@@H](C)CNc1nccc(-c2cn(C(C)C)nc2-c2cc(Cl)cc(NS(C)(=O)=O)c2F)n1 [encorafenib]
Procedure, shortened: as §1

[8] = compound: COC(=O)[C@H](CCSC)NC(=O)C1=C(C=C(C=C1)NC[C@H](CS)N)C2=CC=CC=C2
Procedure, shortened: as §1

alisertib = compound: COc1cc(Nc2ncc3c(n2)-c2ccc(Cl)cc2C(c2c(F)cccc2OC)=NC3)ccc1C(=O)O [alisertib]
Procedure, shortened: as §1

[9] = compound: COc1cc2nc(-c3cc(F)ccc3O)nc(N[C@@H]3CNC[C@H]3C(C)(C)O)c2cc1OC
Procedure, shortened: as §1

gefitinib = compound: COc1cc2ncnc(Nc3ccc(F)c(Cl)c3)c2cc1OCCCN1CCOCC1 [gefitinib]
Procedure, shortened: as §1

Target	log2 fold change (vemurafenib)	log2 fold change [1]	log2 fold change (barasertib)	log2 fold change [2]	log2 fold change (volasertib)	log2 fold change [3]	log2 fold change [4]	log2 fold change [5]	log2 fold change (saracatinib)	log2 fold change (sotrastaurin)	log2 fold change (alvocidib)	log2 fold change (Tubastatin A)	log2 fold change [6]	log2 fold change (defactinib)	log2 fold change [7]	log2 fold change (encorafenib)	log2 fold change [8]	log2 fold change (alisertib)	log2 fold change [9]	log2 fold change (gefitinib)
ABCB6 (UniProt Q9NP58)	inactive: 0.03	inactive: 0.023	inactive: -0.012	inactive: 0.042	inactive: -0.023	inactive: -0.028	inactive: -0.058	inactive: -0.042	inactive: 0.007	inactive: 0.005	inactive: -0.017	inactive: 0.035	inactive: 0.016	inactive: -0.023	inactive: 0.239	inactive: 0.041	inactive: 0.007	inactive: 0.009	inactive: -0.004	inactive: -0.02
ABCE1 (UniProt P61221)	inactive: -0.013	inactive: -0.001	inactive: -0.001	inactive: -0.038	inactive: 0.008	inactive: -0.02	inactive: -0.001	inactive: 0.024	inactive: -0.011	inactive: -0.006	inactive: 0.005	inactive: 0.059	inactive: 0.132	inactive: 0.007	inactive: -0.036	inactive: -0.03	inactive: -0.069	inactive: -0.019	inactive: -0.002	inactive: -0.028
ABCC10 (UniProt Q5T3U5)						inactive: 0.048	inactive: 0.069	inactive: 0.095	inactive: 0.124		inactive: -0.07	inactive: 0.013	inactive: -0.011		inactive: -0.194			inactive: -0.022		inactive: 0.052
ABHD4 (UniProt Q8TB40)	inactive: 0.248													inactive: -0.02				inactive: -0.049		inactive: -0.006
AARS1 (UniProt H3BPK7)	inactive: 0.047													inactive: 0.126						
ABCD4 (UniProt O14678)		inactive: -0.211			inactive: -0.195								inactive: -0.022						inactive: 0.017	
ABHD13 (UniProt Q7L211)	inactive: 0.069	inactive: -0.016	inactive: 0.102	inactive: -0.107	inactive: 0.06		active: -0.543	inactive: 0.077	inactive: 0.179	inactive: -0.031	inactive: -0.225			inactive: 0.022	inactive: -0.051	inactive: 0	inactive: 0.006	inactive: 0.023	inactive: -0.019	inactive: 0.06
ABCA7 (UniProt Q8IZY2)									inactive: -0.042	inactive: -0.056					inactive: -0.086					
ACE (UniProt P12821)	inactive: 0.132	inactive: 0.011			inactive: -0.148								inactive: 0.096	inactive: -0.017					inactive: -0.176	
AASDH (UniProt Q4L235)	inactive: -0.015	inactive: 0.063	inactive: 0.02	inactive: 0.024	inactive: -0.023	inactive: 0.004	inactive: -0.01	inactive: -0.056	inactive: 0.051		inactive: 0.029	inactive: -0.005	inactive: 0.023	inactive: -0.059	inactive: 0.017	inactive: 0.005	inactive: 0	inactive: 0.036	inactive: -0.075	inactive: -0.008
ABCE1 (UniProt H0Y990)	inactive: 0.105		inactive: -0.058	inactive: -0.064		inactive: -0.176	inactive: 0.068	inactive: -0.043		inactive: 0.02	inactive: 0.062	inactive: 0.097	inactive: 0.208	inactive: -0.135		inactive: -0.097	inactive: -0.062			
A0A494C100, A0A494C100	inactive: -0.142		inactive: -0.053				inactive: 0.219	inactive: -0.09	inactive: -0.705		inactive: 0.011			inactive: -0.015	inactive: -0.003					
ABRACL (UniProt Q9P1F3)		inactive: -0.074	inactive: 0.06		inactive: -0.001		inactive: 0.156	inactive: 0.053	inactive: 0.134	inactive: 0	inactive: -0.016		inactive: 0.121		inactive: 0.166			inactive: 0.091	inactive: -0.081	inactive: -0.207
ABHD15 (UniProt Q6UXT9)	inactive: 0	inactive: 0.023		inactive: -0.026	inactive: 0.002	inactive: -0.006	inactive: -0.134	inactive: 0.065			inactive: -0.04	inactive: 0.056	inactive: 0	inactive: -0.051		inactive: 0.003	inactive: -0.04		inactive: 0.007	
ACD (UniProt Q96AP0)						inactive: -0.39	inactive: 0.356	inactive: -0.285		inactive: 0.04	inactive: 0.242	inactive: -0.009								
A2ML1 (UniProt A8K2U0)		inactive: -0.018	inactive: 0.853		inactive: 0.033	inactive: 0.243	inactive: -0.289	inactive: 0.099		inactive: 0.16	inactive: -0.061	inactive: 0.297	inactive: -0.225						inactive: 0.041	
ABCG2 (UniProt Q9UNQ0)							inactive: -0.049	inactive: 0.127			inactive: -0.231									

A different layout for some results above:
Target | log2 fold change (vemurafenib) | log2 fold change [1] | log2 fold change (barasertib) | log2 fold change [2] | log2 fold change (volasertib) | log2 fold change [3] | log2 fold change [4] | log2 fold change [5] | log2 fold change (saracatinib) | log2 fold change (sotrastaurin) | log2 fold change (alvocidib) | log2 fold change (Tubastatin A) | log2 fold change [6] | log2 fold change (defactinib) | log2 fold change [7] | log2 fold change (encorafenib) | log2 fold change [8] | log2 fold change (alisertib) | log2 fold change [9] | log2 fold change (gefitinib)
ABCB6 (UniProt Q9NP58) | inactive: 0.03 | inactive: 0.023 | inactive: -0.012 | inactive: 0.042 | inactive: -0.023 | inactive: -0.028 | inactive: -0.058 | inactive: -0.042 | inactive: 0.007 | inactive: 0.005 | inactive: -0.017 | inactive: 0.035 | inactive: 0.016 | inactive: -0.023 | inactive: 0.239 | inactive: 0.041 | inactive: 0.007 | inactive: 0.009 | inactive: -0.004 | inactive: -0.02
ACD (UniProt Q96AP0) |  |  |  |  |  | inactive: -0.39 | inactive: 0.356 | inactive: -0.285 |  | inactive: 0.04 | inactive: 0.242 | inactive: -0.009 |  |  |  |  |  |  |  | 

Source: the supplement of paper PMC10849652
